The target of the experiment is Flag-tagged wild-type von Hippel-Lindau tumour suppressor protein (pVHL), stably expressed in HCT116 (human) (UniProt P40337). Description: affinity purification with mass spectrometry; Flag-pVHL stably expressed in HCT116 cultured with the proteasome inhibitor MG132; affinity purification from whole cell extracts, 4-20% SDS-PAGE, bands identified by LC-MS/MS.

The chains behind the UniProt entries cited, without tags or fusion partners.
UniProt P40337: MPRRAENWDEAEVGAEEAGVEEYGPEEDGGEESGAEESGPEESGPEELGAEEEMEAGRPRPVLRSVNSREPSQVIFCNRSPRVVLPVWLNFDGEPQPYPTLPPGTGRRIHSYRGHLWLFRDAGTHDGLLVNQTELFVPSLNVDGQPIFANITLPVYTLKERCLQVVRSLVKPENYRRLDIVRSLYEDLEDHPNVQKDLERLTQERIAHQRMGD
UniProt O95573: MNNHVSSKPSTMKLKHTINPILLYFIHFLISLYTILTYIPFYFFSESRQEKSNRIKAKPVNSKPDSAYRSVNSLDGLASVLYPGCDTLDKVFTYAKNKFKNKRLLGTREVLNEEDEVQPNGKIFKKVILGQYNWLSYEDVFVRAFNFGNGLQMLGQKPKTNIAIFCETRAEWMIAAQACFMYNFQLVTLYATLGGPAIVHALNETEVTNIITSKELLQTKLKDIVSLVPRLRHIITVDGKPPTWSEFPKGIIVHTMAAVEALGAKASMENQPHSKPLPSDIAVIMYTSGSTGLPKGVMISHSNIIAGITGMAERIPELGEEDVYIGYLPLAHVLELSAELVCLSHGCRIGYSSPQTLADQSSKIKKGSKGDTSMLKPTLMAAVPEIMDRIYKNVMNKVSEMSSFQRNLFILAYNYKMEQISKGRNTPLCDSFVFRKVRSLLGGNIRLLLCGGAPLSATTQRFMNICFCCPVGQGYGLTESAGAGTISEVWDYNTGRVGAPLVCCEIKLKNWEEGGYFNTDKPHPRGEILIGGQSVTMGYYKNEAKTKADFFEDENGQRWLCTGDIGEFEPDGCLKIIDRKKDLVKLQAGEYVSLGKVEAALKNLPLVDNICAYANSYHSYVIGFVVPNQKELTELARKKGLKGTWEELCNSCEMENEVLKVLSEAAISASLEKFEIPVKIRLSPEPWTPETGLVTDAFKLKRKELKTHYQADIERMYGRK
UniProt P27708: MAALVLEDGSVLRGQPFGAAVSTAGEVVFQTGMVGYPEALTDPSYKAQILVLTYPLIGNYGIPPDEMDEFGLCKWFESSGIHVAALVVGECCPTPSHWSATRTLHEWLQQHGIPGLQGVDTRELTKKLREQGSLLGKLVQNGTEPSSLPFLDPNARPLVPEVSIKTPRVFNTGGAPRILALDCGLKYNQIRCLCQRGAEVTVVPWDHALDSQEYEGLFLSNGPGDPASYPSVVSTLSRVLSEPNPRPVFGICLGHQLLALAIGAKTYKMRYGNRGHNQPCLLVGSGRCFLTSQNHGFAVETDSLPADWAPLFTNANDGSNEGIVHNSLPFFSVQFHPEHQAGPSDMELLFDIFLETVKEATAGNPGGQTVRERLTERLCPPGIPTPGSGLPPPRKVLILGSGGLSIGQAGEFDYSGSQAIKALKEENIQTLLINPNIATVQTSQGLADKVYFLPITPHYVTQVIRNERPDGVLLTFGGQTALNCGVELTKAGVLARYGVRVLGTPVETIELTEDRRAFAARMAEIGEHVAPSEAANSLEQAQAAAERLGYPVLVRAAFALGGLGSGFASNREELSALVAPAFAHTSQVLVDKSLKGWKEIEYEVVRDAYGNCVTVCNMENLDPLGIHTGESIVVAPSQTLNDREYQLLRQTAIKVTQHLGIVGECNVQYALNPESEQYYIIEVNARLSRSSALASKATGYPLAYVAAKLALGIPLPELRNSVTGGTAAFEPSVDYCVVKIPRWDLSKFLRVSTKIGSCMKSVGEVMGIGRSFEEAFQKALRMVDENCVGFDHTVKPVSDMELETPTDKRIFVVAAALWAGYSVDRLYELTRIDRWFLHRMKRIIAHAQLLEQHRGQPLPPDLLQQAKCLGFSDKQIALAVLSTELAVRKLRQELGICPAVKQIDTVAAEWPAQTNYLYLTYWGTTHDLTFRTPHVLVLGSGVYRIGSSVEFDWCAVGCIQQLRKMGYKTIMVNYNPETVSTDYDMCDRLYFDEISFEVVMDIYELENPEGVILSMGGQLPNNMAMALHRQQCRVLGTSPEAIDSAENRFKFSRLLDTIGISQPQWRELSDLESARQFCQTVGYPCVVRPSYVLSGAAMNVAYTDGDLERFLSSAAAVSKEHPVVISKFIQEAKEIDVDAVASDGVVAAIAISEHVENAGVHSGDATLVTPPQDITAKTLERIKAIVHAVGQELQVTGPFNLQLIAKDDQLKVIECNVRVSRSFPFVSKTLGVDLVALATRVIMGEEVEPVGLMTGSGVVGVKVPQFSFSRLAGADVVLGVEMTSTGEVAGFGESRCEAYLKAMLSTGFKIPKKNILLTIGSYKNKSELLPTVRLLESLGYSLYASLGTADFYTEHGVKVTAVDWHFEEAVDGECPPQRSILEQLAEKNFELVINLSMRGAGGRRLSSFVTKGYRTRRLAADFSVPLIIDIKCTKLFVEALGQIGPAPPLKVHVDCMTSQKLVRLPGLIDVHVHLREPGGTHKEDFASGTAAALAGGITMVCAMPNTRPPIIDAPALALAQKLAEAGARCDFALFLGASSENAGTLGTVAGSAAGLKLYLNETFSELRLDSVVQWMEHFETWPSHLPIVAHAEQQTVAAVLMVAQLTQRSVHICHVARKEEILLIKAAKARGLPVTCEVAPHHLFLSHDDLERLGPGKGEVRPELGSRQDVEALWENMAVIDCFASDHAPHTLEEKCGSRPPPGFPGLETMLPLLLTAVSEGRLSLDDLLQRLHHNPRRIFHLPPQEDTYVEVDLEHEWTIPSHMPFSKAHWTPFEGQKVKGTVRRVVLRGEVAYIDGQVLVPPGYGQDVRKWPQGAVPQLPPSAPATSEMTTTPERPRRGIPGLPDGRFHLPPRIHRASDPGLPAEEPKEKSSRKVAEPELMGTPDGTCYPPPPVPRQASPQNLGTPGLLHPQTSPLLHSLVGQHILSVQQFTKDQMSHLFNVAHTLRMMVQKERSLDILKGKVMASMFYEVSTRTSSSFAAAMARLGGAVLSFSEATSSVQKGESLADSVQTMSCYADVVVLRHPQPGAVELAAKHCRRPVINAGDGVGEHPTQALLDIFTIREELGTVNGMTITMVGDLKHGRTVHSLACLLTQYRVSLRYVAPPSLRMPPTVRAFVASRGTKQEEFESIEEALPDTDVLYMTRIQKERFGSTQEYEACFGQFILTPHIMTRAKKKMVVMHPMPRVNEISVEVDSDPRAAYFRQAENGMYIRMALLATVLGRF

These are yes or no findings as the source states them, for the method shown. In cells and extracts the contact can be indirect. These calls come from enrichment with a bait or labelling near it, and not all partners need be listed.

As for “acyl-CoA synthetase 3, endogenous in HCT116 (from UniProt O95573 1-720) (enzyme)”, the binding entry is “binds”. Turning to “carbamoyl-phosphate synthetase 2, aspartate transcarbamylase and dihydroorotase (CAD), endogenous in HCT116 (from UniProt P27708 1-2225) (enzyme)”, the binding result is “binds”.
